# Measured data: PubChem BioAssay AID1224830 (NIAID, 2016)
# Test: 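Regulators of TLR4 signalling towards TNF-alpha in macrophage-like cells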 (primary screen)
# Cell system: human THP-1 monocytic leukaemia cells, TNF dual-luciferase reporter clone, PMA-differentiated to macrophage-like cells
# Reagents: siRNA pool against human genes, 50 nM
# Timing: LPS for 4 h, given about 3 days after siRNA transfection
# Challenge: bacterial LPS (TLR4 ligand), 10 ng/ml
# Detection: 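Ratio of firefly to renilla light, scaled to the plate median and expressed as a robust z-score per replicate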
# Reading the numbers: TNF reporter robust z-score: higher = stronger TNF reporter response to LPS
# Rule for the call: 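a well is active when its z-score exceeds 2.8 or falls below -1.5; control wells carry no call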
# The whole screen tested about 18,000 reagents; this is an unselected part. In the full data, about 2,900 (16%) are marked active. 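Calls are made per well; low scores hint the gene aids the LPS response, high scores that it dampens it.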 Entries without a mark were called inactive. Repeated entries: four replicate wells of each siRNA pool.
Target gene,TNF reporter robust z-score
E2F4,-0.04
E2F4,0.57
E2F4,-0.16
E2F4,0.49
CAPN15,1.16
CAPN15,0.87
CAPN15,-0.36
CAPN15,0.58
OXNAD1,-0.54
OXNAD1,0
OXNAD1,-0.18
OXNAD1,-0.5
ELAC2,0.48
ELAC2,0.87
ELAC2,-0.12
ELAC2,-0.11
RRP7A,0.12
RRP7A,-0.24
RRP7A,-0.48
RRP7A,-0.27
CLDN16,-0.19
CLDN16,-0.55
CLDN16,-0.6
CLDN16,-0.41
SLC36A2,0.76
SLC36A2,1.07
SLC36A2,1.41
SLC36A2,1.15
DGKH,1.3
DGKH,-0.33
DGKH,-0.35
DGKH,1.87
PSRC1,-0.64
PSRC1,-0.98
PSRC1,-0.91
PSRC1,-0.93
ENKUR,0.45
ENKUR,0.24
ENKUR,0.15
ENKUR,0.6
MGAT4C,-0.84
MGAT4C,-0.62
MGAT4C,-0.43
MGAT4C,-1.19
SLC10A1,0.5
SLC10A1,-0.81
SLC10A1,0.96
SLC10A1,0.67
NEK4,-0.15
NEK4,0.96
NEK4,0.36
NEK4,0.15
JHY,-0.26
JHY,-0.72
JHY,0.69
JHY,0.52
TAS2R50,-1.07
TAS2R50,-1.34
TAS2R50,-0.97
TAS2R50,-0.31
NCBP2,-1.34
NCBP2,-0.52
NCBP2,-0.97
NCBP2,0.35
HEATR5B,-0.44
HEATR5B,0.1
HEATR5B,-0.83
HEATR5B,-0.15
FBXL13,-0.27
FBXL13,1.52
FBXL13,1.3
FBXL13,4.74 (active)
ADGRD2,0.43
ADGRD2,-0.23
ADGRD2,0.08
ADGRD2,0.34
GRIA1,0.08
GRIA1,1.29
GRIA1,0
GRIA1,0.9
SLC25A1,-0.86
SLC25A1,0.03
SLC25A1,-0.65
SLC25A1,0.52
NAA10,-0.03
NAA10,0.34
NAA10,0.11
NAA10,-1.01
ZBTB40,3.17 (active)
ZBTB40,2.82 (active)
ZBTB40,2.29
KLRC4,-0.68
KLRC4,0.03
KLRC4,-0.34
KLRC4,0.66
BAIAP2,0.72
BAIAP2,2.13
BAIAP2,1.66
BAIAP2,2.52
ATP6V1G2,0.55
ATP6V1G2,0.85
ATP6V1G2,1.15
ATP6V1G2,2.39
GATM,0.02
GATM,0.25
GATM,0.11
GATM,0.32
CENPU,-0.01
CENPU,2.49
CENPU,0.61
CENPU,1.07

Entries listed so far with an active call, once more:
Target gene,TNF reporter robust z-score
FBXL13,4.74 (active)
ZBTB40,3.17 (active)
ZBTB40,2.82 (active)
